From article PMC7090148 (2020)

Experiments:
[1] = target: T1, Myc-tagged OFD1 (oral-facial-digital syndrome 1), full length (human) (UniProt O75665); assay: co-IP; Myc-OFD1 (full length or truncations) co-transfected with NTAP-TRAPPC8 or NTAP-TRAPPC12 in HEK293T cells (wild type; also TRAPPC12-/- for TRAPPC8 and TRAPPC8-/- for TRAPPC12); lysate in RIPA buffer (20 mM Tris pH 8.0, 100 mM NaCl, 0.1% NP-40); IP with anti-Myc antibody and protein A-sepharose, 4°C overnight; immunoblot
T1 sequence: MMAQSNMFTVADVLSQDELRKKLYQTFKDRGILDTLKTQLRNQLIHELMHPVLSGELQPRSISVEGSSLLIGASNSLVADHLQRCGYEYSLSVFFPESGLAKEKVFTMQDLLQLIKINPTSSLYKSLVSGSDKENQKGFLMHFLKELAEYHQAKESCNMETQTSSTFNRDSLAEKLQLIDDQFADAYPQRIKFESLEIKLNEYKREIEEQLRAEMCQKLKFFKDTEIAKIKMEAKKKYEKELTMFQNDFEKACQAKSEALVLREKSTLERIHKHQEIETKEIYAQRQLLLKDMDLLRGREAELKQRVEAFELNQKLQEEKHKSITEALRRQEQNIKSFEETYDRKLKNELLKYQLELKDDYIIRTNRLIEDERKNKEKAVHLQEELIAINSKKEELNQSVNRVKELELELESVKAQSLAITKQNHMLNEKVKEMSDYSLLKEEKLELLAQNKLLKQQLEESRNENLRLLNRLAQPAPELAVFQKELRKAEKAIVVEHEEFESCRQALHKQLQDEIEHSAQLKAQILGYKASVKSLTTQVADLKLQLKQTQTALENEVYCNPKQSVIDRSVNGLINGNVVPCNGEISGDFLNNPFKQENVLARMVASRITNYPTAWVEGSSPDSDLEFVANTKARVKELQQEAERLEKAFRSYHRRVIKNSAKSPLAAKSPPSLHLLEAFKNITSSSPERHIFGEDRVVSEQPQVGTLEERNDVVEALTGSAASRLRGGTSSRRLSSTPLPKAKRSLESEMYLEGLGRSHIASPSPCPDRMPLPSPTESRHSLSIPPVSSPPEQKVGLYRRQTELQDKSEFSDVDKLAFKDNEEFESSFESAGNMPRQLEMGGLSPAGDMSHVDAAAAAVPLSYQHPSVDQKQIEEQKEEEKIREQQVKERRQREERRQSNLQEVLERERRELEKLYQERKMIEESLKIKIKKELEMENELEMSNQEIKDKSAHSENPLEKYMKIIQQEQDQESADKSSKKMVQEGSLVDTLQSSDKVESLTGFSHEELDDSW

[2] = target: T2, Myc-tagged OFD1 N-terminal region (residues 1-192), including the LisH motif (not stated (human or mouse cDNA cloned)) (UniProt O75665); assay: as above
T2 sequence: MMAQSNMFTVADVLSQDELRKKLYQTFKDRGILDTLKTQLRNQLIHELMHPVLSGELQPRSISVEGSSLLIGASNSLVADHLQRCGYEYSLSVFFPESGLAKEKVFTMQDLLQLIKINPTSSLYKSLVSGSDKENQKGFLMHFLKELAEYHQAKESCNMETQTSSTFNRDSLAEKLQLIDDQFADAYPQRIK

[3] = target: T3, Mouse OFD1, wild type (mouse) (UniProt Q80Z25); assay: co-IP; OFD1 mutants co-expressed with TRAPPC8 or TRAPPC12; IP efficiency as ratio of immunoprecipitated TRAPPC8/OFD1 or TRAPPC12/OFD1; cell line and IP antibody not stated for this panel
T3 sequence: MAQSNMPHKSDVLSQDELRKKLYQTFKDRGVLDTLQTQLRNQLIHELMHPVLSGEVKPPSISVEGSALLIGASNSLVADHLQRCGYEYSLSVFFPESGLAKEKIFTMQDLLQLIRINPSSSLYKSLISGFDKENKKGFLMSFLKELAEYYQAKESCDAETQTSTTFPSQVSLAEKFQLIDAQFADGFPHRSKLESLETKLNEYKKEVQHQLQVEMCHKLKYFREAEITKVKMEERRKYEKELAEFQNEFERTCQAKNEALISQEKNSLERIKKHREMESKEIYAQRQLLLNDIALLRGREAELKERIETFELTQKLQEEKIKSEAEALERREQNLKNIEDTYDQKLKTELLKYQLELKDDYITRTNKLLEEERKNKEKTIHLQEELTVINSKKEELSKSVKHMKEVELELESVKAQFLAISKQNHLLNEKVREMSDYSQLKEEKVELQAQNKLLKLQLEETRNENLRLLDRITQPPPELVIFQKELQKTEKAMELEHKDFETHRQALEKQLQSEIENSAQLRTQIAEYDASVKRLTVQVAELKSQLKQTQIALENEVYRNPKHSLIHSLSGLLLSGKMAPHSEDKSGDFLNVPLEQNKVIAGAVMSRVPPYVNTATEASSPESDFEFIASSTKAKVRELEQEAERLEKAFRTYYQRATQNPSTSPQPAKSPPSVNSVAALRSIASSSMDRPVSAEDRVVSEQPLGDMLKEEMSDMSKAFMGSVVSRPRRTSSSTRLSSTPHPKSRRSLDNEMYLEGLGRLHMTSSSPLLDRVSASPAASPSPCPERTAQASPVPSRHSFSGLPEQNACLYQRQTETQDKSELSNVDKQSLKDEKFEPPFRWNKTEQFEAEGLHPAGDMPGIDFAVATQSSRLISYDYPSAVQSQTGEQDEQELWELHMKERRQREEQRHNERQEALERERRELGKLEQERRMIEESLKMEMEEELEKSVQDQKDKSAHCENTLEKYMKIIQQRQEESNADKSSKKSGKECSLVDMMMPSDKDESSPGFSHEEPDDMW

binding [1]: binds | binding [2]: binds | binding [3]: binds
Substance: NTAP-tagged TRAPPC8 (mouse)

Results are given in words; binding and its absence hold for the method and conditions named. Binding seen in cells or lysates may run through a third protein. A result given as binding can be weak or reduced; the word gives no strength. For part of these data: Tags and fused reporters may be left off the sequences shown.
